# Data reported in PubChem BioAssay AID504834 (National Center for Advancing Translational Sciences (NCATS), 2011).
# Hit rate of the full screen: of about 320,000 compounds, about 22,000 (6.9%) were called active. Inconclusive results, whose numbers are uncertain, are shown with a selection of clear calls. Calls follow the shape of the dose curve; as a rule, active = well fitted inhibition curve with a large enough effect; inconclusive = small, poorly fitted or top-dose-only effect, or another doubt; inactive = no such curve, though single readings can be large or run the other way. Potencies of inconclusive entries are doubtful fits and often do not repeat.
# Assay: Primary qHTS for delayed death inhibitors of the malarial parasite plastid, 96 hour incubation
# Details: P. falciparum luciferase reporter growth; series mostly up to 28.7 µM
# Summary of the method: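 Compounds incubated with erythrocytes infected by luciferase-expressing P. falciparum (2% hematocrit, 0.05% parasitemia final) for 96 hours, 37 C in 5% CO2. Growth inhibition scored as decreased luciferase luminescence.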
# Potency is read from the fitted curve at half-maximal effect.
row,Compound,Potency
1,COc1ccc(NC(=O)CN(C)S(=O)(=O)c2cnc[nH]2)cc1Cl,"inconclusive: 18.5 µM [inhibitor, single point]"
2,CCC(=O)Nc1nc2cc(OC)ccc2s1,inactive
3,CCc1ccc(-c2nc(CS(=O)CC(=O)NCc3ccccc3)c(C)o2)cc1 (centres undefined),inactive
4,O=c1c2sc3nc(N4CCOCC4)c4c(c3c2nnn1Cc1ccccc1)CCCC4,"inconclusive: 5.86 µM [inhibitor, partial curve, poor fit]"
5,Cc1ccc(-c2[nH]c(-c3ccccc3)nc2SCC(=O)NCC2CCCO2)cc1 (centres undefined),"inconclusive: 14.7 µM [inhibitor, partial curve, poor fit]"
6,O=C(Nc1ccc(OC(F)F)cc1)c1cc[n+]([O-])cc1,inactive
7,O=C(NC(Cc1c[nH]c2ccccc12)C(=O)O)/C(=C\c1ccccc1)NC(=O)c1ccccc1 (centres undefined),active: 10.4 µM
8,Cc1onc(-c2ccccc2)c1C(=O)OCC(=O)Nc1ccc(C#N)cc1,"inconclusive: 9.28 µM [inhibitor, partial curve, poor fit]"
9,O=[N+]([O-])c1cc(CN2CCCCCC2)ccc1O,"inconclusive: 14.7 µM [inhibitor, partial curve, poor fit]"
10,CC1(C)CC2CC(C)(CN2S(=O)(=O)c2ccc(C(=O)Nc3cccc(S(=O)(=O)N4CCOCC4)c3)cc2)C1 (centres undefined),"inconclusive: 9.28 µM [inhibitor, partial curve, poor fit]"
11,O=C(Cc1cccc(NC(=O)C2CCCN(C(=O)C3CCCCC3)C2)c1)Nc1cccc(C(=O)N2CCCC2)c1 (centres undefined),"inconclusive: 13.1 µM [inhibitor, partial curve]"
12,COc1ccc(CNC(=O)C2CCCN(c3nn4c(=O)cc(C)nc4s3)C2)cc1 (centres undefined),active: 9.28 µM
13,Cc1nc(N)[nH]c(=O)c1Oc1cccc(C(F)(F)F)c1,inactive
14,Cn1c(Oc2ccccc2NCc2cc(Br)ccc2O)cc(=O)n(C)c1=O,"inconclusive: 8.28 µM [inhibitor, partial curve]"
15,O=C(OCC(=O)N1CCCC1)c1ccc(OC(F)(F)F)cc1,inactive
16,COc1ccc(-c2nc(C(=O)NCCCN3CCOCC3)cc3c2[nH]c2ccccc23)cc1OC,active: 5.22 µM
17,COC(=O)CCCC1=CC2=CC(=O)C(C)(OC(=O)c3cccs3)C(=O)C2=CN1C1CC1 (centres undefined),"inconclusive: 18.5 µM [inhibitor, single point]"
18,CCCN1CCN(C(=O)c2oc3ccccc3c2NC(=O)COc2ccc(OC)cc2)CC1,"inconclusive: 1.04 µM [inhibitor, full curve, poor fit]"
19,CCOC(=O)C(NC(C)=O)C(OC(C)=O)c1cccc(N(CCCl)CCCl)c1 (centres undefined),active: 10.4 µM
20,COc1cc(Br)c(C(C)NC(=O)c2cccc(Br)c2)cc1OC (centres undefined),active: 1.65 µM
21,C=CCNC(=S)Nc1ccc(Cl)cc1,inactive
22,CC(C)CCC(CCNCc1ccccn1)c1ccc2c(c1)OCO2 (centres undefined),active: 10.4 µM

row,Compound,Potency
1,CCNC(=O)NC(=O)COC(=O)c1ccccc1SCC(=O)NC(=O)NCC,"inconclusive: 18.5 µM [inhibitor, single point]"
2,COc1ccc(NC(=O)ON=C2c3ccccc3-c3ccccc32)cc1,"inconclusive: 18.5 µM [inhibitor, single point]"
3,CN1C(=O)CC(c2ccco2)Sc2ccccc21 (centres undefined),inactive
4,Cc1ccc(CS(=O)(=O)c2ncc(Cl)c(C(=O)Nc3nnc(C)s3)n2)cc1,"inconclusive: 18.5 µM [inhibitor, single point]"
5,C#CCNC(=O)C1=C[C@H](c2ccc(C(F)(F)F)cc2)C[C@H](OCCCCO)O1,"inconclusive: 9.28 µM [inhibitor, single point]"
6,N/C(=N\OC(=O)COc1ccccc1Cl)c1ccccn1,inactive
7,Nc1ccc2nc(COc3ccccc3)[nH]c2c1,active: 7.38 µM
8,CCN(CC)S(=O)(=O)c1ccc(C(=O)NCC(c2cccs2)N2CCOCC2)cc1 (centres undefined),"inconclusive: 11.7 µM [inhibitor, partial curve, poor fit]"
9,CC(=O)c1ccc(C(=O)N2CCc3c([nH]c4ccccc34)C2c2cccc(C)n2)s1 (centres undefined),active: 13.1 µM
10,CCN(CC)S(=O)(=O)c1ccc(N2CCc3cc(OC)c(OC)cc3C2)nc1,"inconclusive: 16.5 µM [inhibitor, single point]"
11,CC(C)[C@@H](C(=O)NCc1ccco1)N1C(=O)N2CCc3c([nH]c4ccccc34)[C@@]2(C)C1=O,"inconclusive: 10.4 µM [inhibitor, partial curve, poor fit]"
12,CC(C)NC(=O)CSc1nnc(-c2ccc(S(=O)(=O)N3CCCC3)cc2)n1CC1CCCO1 (centres undefined),inactive
13,Cc1ccc(NC(=O)CN2CCC(NC(=O)C3CCCCC3)CC2)c(Br)c1,active: 11.7 µM
14,C[C@]12CCC(=O)C[C@@H]1CC[C@@H]1[C@@H]2CC[C@]2(C)C=CC[C@@H]12,"inconclusive: 12 µM [inhibitor, single point]"
15,CN(C)S(=O)(=O)c1cc(NC(=O)CSc2cccc[n+]2[O-])ccc1Cl,"inconclusive: 10.4 µM [inhibitor, partial curve]"
16,COc1ccc(C2c3[nH]c4ccccc4c3C[C@H]3C(=O)N(CCCO)CC(=O)N23)cc1OC (some centres undefined),inactive
17,Cc1ccc(NC(=O)CCNS(=O)(=O)c2cc(Br)cnc2N)cc1Cl,"inconclusive: 13.1 µM [inhibitor, partial curve]"
18,Cc1cc(O)ccc1N/C=C(\C#N)c1nc2ccccc2o1,"inconclusive: 10.4 µM [inhibitor, partial curve]"
19,CCCn1c(SCC(=O)Nc2ccc(Cl)cn2)nnc1C1CC1,"inconclusive: 18.5 µM [inhibitor, single point]"
20,O=C(CCCCn1c(=O)c2ccccc2n(CC(=O)Nc2ccc(F)cc2)c1=O)NCc1ccco1,"inconclusive: 0.586 µM [inhibitor, full curve, poor fit]"
21,CCOC(=O)C1=C(C)N(CC(C)C)C(=O)/C1=C\c1ccc(OCC(=O)Nc2ccccc2)cc1,inactive
22,CCc1ccc(N(C(=O)c2snc(C(N)=O)c2N)C(C(=O)NCCC(C)C)c2c[nH]c3ccccc23)cc1 (centres undefined),inactive

# Ordered by number of heavy atoms (falling): some entries from above.
row,Compound,Potency
16,COc1ccc(C2c3[nH]c4ccccc4c3C[C@H]3C(=O)N(CCCO)CC(=O)N23)cc1OC (some centres undefined),inactive
5,C#CCNC(=O)C1=C[C@H](c2ccc(C(F)(F)F)cc2)C[C@H](OCCCCO)O1,"inconclusive: 9.28 µM [inhibitor, single point]"
4,Cc1ccc(CS(=O)(=O)c2ncc(Cl)c(C(=O)Nc3nnc(C)s3)n2)cc1,"inconclusive: 18.5 µM [inhibitor, single point]"
2,COc1ccc(NC(=O)ON=C2c3ccccc3-c3ccccc32)cc1,"inconclusive: 18.5 µM [inhibitor, single point]"
17,Cc1ccc(NC(=O)CCNS(=O)(=O)c2cc(Br)cnc2N)cc1Cl,"inconclusive: 13.1 µM [inhibitor, partial curve]"
19,CCCn1c(SCC(=O)Nc2ccc(Cl)cn2)nnc1C1CC1,"inconclusive: 18.5 µM [inhibitor, single point]"
14,C[C@]12CCC(=O)C[C@@H]1CC[C@@H]1[C@@H]2CC[C@]2(C)C=CC[C@@H]12,"inconclusive: 12 µM [inhibitor, single point]"
3,CN1C(=O)CC(c2ccco2)Sc2ccccc21 (centres undefined),inactive
